Experimental data: paper PMC5755467
These are yes or no findings as the source states them, for the method shown. In cells and extracts the contact can be indirect. Some entries that bind do so weakly or less than the wild type. For part of these data: Where a sequence is shown, tags or fusion partners need not be part of it.

Sequences of proteins named here, by UniProt entry; tags and fusion partners are left off.
UniProt Q92831: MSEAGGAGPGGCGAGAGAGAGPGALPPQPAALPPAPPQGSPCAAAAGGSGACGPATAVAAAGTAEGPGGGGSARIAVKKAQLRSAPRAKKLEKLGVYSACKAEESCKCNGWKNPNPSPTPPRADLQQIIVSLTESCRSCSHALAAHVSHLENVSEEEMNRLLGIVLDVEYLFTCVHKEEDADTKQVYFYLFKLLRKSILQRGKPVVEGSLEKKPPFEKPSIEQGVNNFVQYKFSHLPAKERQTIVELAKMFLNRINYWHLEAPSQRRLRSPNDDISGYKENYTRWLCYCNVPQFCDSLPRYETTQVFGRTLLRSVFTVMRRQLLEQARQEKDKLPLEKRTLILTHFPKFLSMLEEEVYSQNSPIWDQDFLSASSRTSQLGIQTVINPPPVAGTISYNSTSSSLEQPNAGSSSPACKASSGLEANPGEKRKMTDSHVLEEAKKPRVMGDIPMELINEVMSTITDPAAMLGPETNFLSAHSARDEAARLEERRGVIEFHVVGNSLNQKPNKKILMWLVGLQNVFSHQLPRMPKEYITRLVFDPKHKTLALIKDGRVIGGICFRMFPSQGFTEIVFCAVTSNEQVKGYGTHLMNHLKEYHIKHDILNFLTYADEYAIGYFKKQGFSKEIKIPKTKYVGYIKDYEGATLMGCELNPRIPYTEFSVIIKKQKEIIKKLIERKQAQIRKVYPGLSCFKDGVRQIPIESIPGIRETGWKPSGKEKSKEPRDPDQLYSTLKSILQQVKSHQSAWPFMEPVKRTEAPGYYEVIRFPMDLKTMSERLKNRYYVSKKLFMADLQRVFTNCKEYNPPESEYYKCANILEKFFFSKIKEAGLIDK

T1: GFP-tagged Lin28B (human (cDNA library from HEK293T cells)) (UniProt Q6ZN17)
T1 sequence: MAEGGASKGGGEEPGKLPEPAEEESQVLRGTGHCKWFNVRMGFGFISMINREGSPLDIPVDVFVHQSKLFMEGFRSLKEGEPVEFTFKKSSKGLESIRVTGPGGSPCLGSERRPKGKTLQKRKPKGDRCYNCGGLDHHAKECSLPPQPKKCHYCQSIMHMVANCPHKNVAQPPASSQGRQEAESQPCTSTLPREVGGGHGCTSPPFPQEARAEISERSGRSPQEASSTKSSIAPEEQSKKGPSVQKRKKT

T2: GST-tagged Lin28B fusion protein (human (cDNA library from HEK293T cells)) (UniProt Q6ZN17)
T2 sequence: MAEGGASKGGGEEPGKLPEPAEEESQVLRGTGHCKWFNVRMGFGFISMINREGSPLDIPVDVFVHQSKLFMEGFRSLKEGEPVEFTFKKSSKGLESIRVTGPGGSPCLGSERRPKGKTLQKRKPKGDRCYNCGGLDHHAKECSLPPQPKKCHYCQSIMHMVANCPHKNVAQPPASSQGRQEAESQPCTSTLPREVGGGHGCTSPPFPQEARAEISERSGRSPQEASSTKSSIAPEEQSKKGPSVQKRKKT


How the values were obtained:
[1] = target: T1, GFP-tagged Lin28B (human (cDNA library from HEK293T cells)); experiment: co-IP; HEK293T cells co-transfected with GFP-tagged Lin28B (or its GFP-tagged fragments L1~L7) and FLAG-PCAF; whole cell extracts IP-ed with anti-GFP beads at 4 °C overnight; blot with anti-FLAG; lysis buffer 50 mM HEPES pH 7.5, 150 mM NaCl, 1% Triton X-100
[2] = target: T2, GST-tagged Lin28B fusion protein (human (cDNA library from HEK293T cells)); experiment: pull-down; GST or GST-tagged Lin28B on beads incubated with whole cell extracts of HEK293T cells ectopically expressing FLAG-PCAF at 4 °C overnight; western blot; only the target purified
FLAG-PCAF = FLAG-PCAF (UniProt Q92831); experiment: co-IP; whole cell extracts of FLAG-PCAF or PCAF-ΔHAT-transfected cells IP-ed with anti-FLAG; blotted with anti-FLAG and anti-Lin28B (endogenous Lin28B); IP with IgG as control

binding [1]	binding [2]	binding (FLAG-PCAF)	Molecule
binds	binds	–	FLAG-PCAF (from UniProt Q92831 1-832) (enzyme)
–	–	binds	Lin28B (endogenous) (protein, UniProt Q6ZN17 1-250) MAEGGASKGGGEEPGKLPEPAEEESQVLRGTGHCKWFNVRMGFGFISMINREGSPLDIPVDVFVHQSKLFMEGFRSLKEGEPVEFTFKKSSKGLESIRVTGPGGSPCLGSERRPKGKTLQKRKPKGDRCYNCGGLDHHAKECSLPPQPKKCHYCQSIMHMVANCPHKNVAQPPASSQGRQEAESQPCTSTLPREVGGGHGCTSPPFPQEARAEISERSGRSPQEASSTKSSIAPEEQSKKGPSVQKRKKT
